This is an account of results in PubChem BioAssay AID662 (National Center for Advancing Translational Sciences (NCATS), 2007).

Values joined by “and” are separate entries in the source; they are usually repeats but may differ in a detail not shown here. Identical values can stand only once. This is one part of the list. Further columns of the screen follow, without active or inactive calls. The list favours compounds with an active or inconclusive main result. Potencies come from curve fits of mixed quality, noted in brackets.

The nature of this assay: Cell signaling CRE-BLA (Fsk stim). The following applies: CHO CRE-bla reporter (cAMP response element driving beta-lactamase), forskolin EC10, beta-lactamase ratio; measured here: 460 nm blue channel. Put shortly: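 Modulation of forskolin signalling: compounds in titration series added with EC10 NKH 477 to CHO cells carrying a CRE-driven beta-lactamase reporter, 3 h, 37C. CCF4 FRET ratio (460/530 nm, ex 405 nm) gives %activity and AC50.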
With `CCN(CC)c1ccc(C2CC(=O)NC3=C2C(=O)CC(C)(C)C3)cc1` (stereo not given), the AC50 was 12.6 µM [falling, partial curve].
To `O=C(CSc1ccc2nnc(-c3cccnc3)n2n1)NCC1CCCO1` (stereo not given) belongs 12.6 µM [rising, single point]; to `O=C(c1cnn2c(C(F)F)cc(C3CC3)nc12)N1CCc2ccccc2C1`, 10 µM [rising, single point].
To `COc1ccccc1NC(=O)CSc1nnnn1-c1ccc2c(c1)OCO2` belongs 10 µM [rising, single point]; to `Cc1cc(-c2ccccc2)c2c3c(cn2n1)c(=O)n(C)c(=O)n3C`, 6.31 µM [rising, partial curve]; to `CN(C)CCCSc1ccccc1NC(=O)/C=C\c1ccccc1`, 31.6 µM [falling, single point].
The same measure for `O=C(NCCCn1ccnc1)Nc1ccc(Cl)cc1`: 0.00794 µM [falling, full curve].
With `CCOC(=O)N1CCc2c(sc(NC(=O)c3ccc(S(=O)(=O)N4CCCC4)cc3)c2C#N)C1`, the half-maximal activity concentration (AC50) is 12.6 µM [rising, single point].
As for `COc1ccccc1CNc1nc(-c2c(C)noc2C)nc2ccccc12`, the AC50 was 10 µM [rising, partial curve].
To `N#Cc1cc2ccc(N3CCOCC3)cc2cc1C#N` belongs 15.8 µM [rising, partial curve].
As to `[O-]/[N+](=C/c1cccnc1)c1ccc(Br)cc1`, the half-maximal activity concentration (AC50) was 0.00398 µM [falling, full curve, poor fit].
To `COc1ccccc1CCn1c(=O)c(-c2ccc(F)c(F)c2)nc2cncnc21` belongs 10 µM [rising, partial curve].
To `CCN(CC)c1nc(-c2nn[nH]n2)nc(N(CC)CC)n1` belongs 0.316 µM [rising, full curve].
On to `C/C=C/Cn1c(Br)nc2c1c(=O)n(C)c(=O)n2C`, for which the AC50 is 12.6 µM [rising, single point].
To `O=C1CC(c2nc3ccccc3[nH]2)CN1Cc1ccccc1` (stereo not given) belongs 10 µM [rising, single point]; to `CCN(CC)C(=O)C1CC(c2ccc(OC)cc2)=NO1` (stereo not given), 25.1 µM [rising, single point]; to `CCN(CC(=O)NCc1cccs1)S(=O)(=O)c1cccc(C(C)=O)c1`, 0.0501 µM [falling, full curve].
To `Cc1coc(C)c1C(=O)CC1(O)C(=O)Nc2cc(Cl)cc(Cl)c21` (stereo not given) belongs 10 µM [falling, partial curve]; to `O=C(NCCCn1ccnc1)C1c2ccccc2Oc2ccccc21`, 0.0251 µM [falling, full curve, poor fit]; to `CS/C(=N\S(=O)(=O)c1cccs1)Nc1ccc(N2CCOCC2)cc1`, 1.26 µM [falling, partial curve].
The same measure for `CCCC(=O)NCCc1cc2ccc(C)c(C)c2[nH]c1=O`: 10 µM [rising, partial curve].
Regarding `COc1ccc(-c2cc(C(F)F)n3ncc(C(=O)N4CCN(C(=O)c5ccco5)CC4)c3n2)cc1`, the AC50 is 12.6 µM [rising, partial curve].
The same measure for `Cc1nc2cnc(N3CCNCC3)nc2n(Cc2cccs2)c1=O`: 12.6 µM [rising, partial curve]; for `Cn1c(Cc2csc(N)n2)nnc1SCC(=O)NC1CCCCC1`: 0.00398 µM [falling, full curve, poor fit]; for `COC(=O)c1sc(NC(=O)C2CCCO2)c(C(=O)OC)c1C` (stereo not given): 0.631 µM [rising, full curve, poor fit].
To `CCCN(C/C=C\I)[C@@H]1CCc2cccc(O)c2C1` belongs 15.8 µM [falling, partial curve, poor fit]; to `CCN1CCN(C(=O)c2cc3c(=O)n(C)c4ccccc4c3n2C)CC1`, 25.1 µM [rising, single point]; to `N#CCCSCc1ccc2oc(C(=O)O)cc2c1`, 10 µM [falling, partial curve].
To `CCOc1ccccc1-c1nc(C(N)=O)c2[nH]c(=O)n(-c3cccc(C)c3)c2n1` belongs 12.6 µM [rising, partial curve]; to `CNC(=O)C(Sc1ccccc1)c1ccccc1` (stereo not given), 0.00316 µM [falling, full curve, poor fit]; to `COc1ccc(CNC(=O)CSc2nnnn2-c2ccc(O)cc2)cc1`, 5.01 µM [falling, partial curve, poor fit].
As to `Cc1ccc(C2C(C#N)=C(N)Oc3c2sc2ccccc32)o1` (stereo not given), the half-maximal activity concentration (AC50) is 0.316 µM [falling, partial curve, poor fit].
The same measure for `N#Cc1cc(-c2ccccc2)oc1NC(=O)c1ccco1`: 0.501 µM [rising, full curve]; for `CCOc1ccc(S(=O)(=O)N2CCN(S(=O)(=O)c3ccc(OCC)cc3)C(C)C2)cc1` (stereo not given): 0.316 µM [rising, full curve]; for `Cc1cc(N=Cc2c(O)ccc3ccccc23)no1`: 15.8 µM [falling, partial curve].
With `COC(=O)C(O)(NC(=O)OCc1ccccc1)C(F)(F)F` (stereo not given), the concentration at half-maximal activity (AC50) was 12.6 µM [falling, partial curve].
To `Cc1cccc(CNc2nc(-c3ccccc3CN(C)C)nc3ccccc23)c1` belongs 6.31 µM [rising, partial curve]; to `CC(=O)c1cc2c(cc1NC(=O)CSc1nnc(C)s1)OCO2`, 12.6 µM [rising, single point].
To `Cc1cc(N2CCOCC2)n2nc(C)c(-c3ccccc3)c2n1` belongs 10 µM [rising, partial curve].
To `C(=N\c1nc2ccccc2n1CCN1CCOCC1)/c1cccs1` belongs 1.58 µM [rising, partial curve]; to `Cc1ccc2c(CN3C(=O)NC4(CCCCC4)C3=O)cc(=O)oc2c1C`, 10 µM [rising, partial curve]; to `COc1ccc(Cc2nc(-c3ccc(Br)o3)no2)cc1OC`, 2 µM [rising, partial curve].
Turning to `O=C(Nc1nc(-c2ccc3c(c2)OCO3)cs1)c1ccncc1`, the AC50 is 15.8 µM [falling, single point].
With `Cc1c(Nc2ncnc3nc[nH]c23)c(=O)n(-c2ccccc2)n1C`, the AC50 was 3.16 µM [rising, full curve].
The same measure for `COc1ccc(Oc2ncc3nc(-c4ccccc4)c(=O)n(CCC#N)c3n2)cc1`: 12.6 µM [rising, partial curve].
To `Cc1nc2ccc(NC(=O)N3CCC(c4ccccc4)C3)cc2nc1C` (stereo not given) belongs 10 µM [rising, partial curve]; to `CCNc1nc(SC(C)C(=O)OC)nc(N2CCOCC2)n1` (stereo not given), 12.6 µM [rising, partial curve]; to `N#CCCn1c(SCC(=O)NCC2CCCO2)nc2ccccc21` (stereo not given), 0.2 µM [falling, partial curve].
Consider `Cc1ccc2nc3c(cc(C#N)c(=N)n3CC3CCCO3)c(=O)n2c1` (stereo not given), for which the concentration at half-maximal activity (AC50) was 2.51 µM [rising, partial curve].
The same measure for `COC(=O)Nc1nc(C)c(C(=O)N(C)C)s1`: 5.01 µM [falling, single point].
The same measure for `CSc1ncccc1C(=O)OCC(=O)Nc1cc(C(F)(F)F)ccc1N1CCOCC1`: 12.6 µM [rising, partial curve]; for `COc1cccc(-c2ccc3ncnc(NC4CC4)c3c2)c1`: 3.16 µM [rising, full curve]; for `CSc1ccc(CN2CCC(O)CC2)cc1`: 1 µM [rising, single point].
As for `Cn1c(=N)c(S(=O)(=O)c2ccc(Cl)cc2)cc2c(=O)n3ccccc3nc21`, the concentration at half-maximal activity (AC50) was 12.6 µM [rising, partial curve].
`Cc1nc(C)c(C(=O)Nc2nc3c(C)cccc3s2)o1`: the AC50 is 5.01 µM [falling, partial curve].
On to `CC(=O)NCCn1c(SCc2cc(=O)n3cc(Cl)ccc3n2)nc2ccccc2c1=O`, for which the AC50 was 0.501 µM [rising, full curve].
With `CCOC(=O)C1CCN(C(=O)CC(NS(=O)(=O)c2ccc(OC)cc2)C(C)C)CC1` (stereo not given), the AC50 was 7.94 µM [rising, partial curve].
Take `CCC(C)NC(=O)C1c2ccccc2C(=O)N1Cc1cc(OC)ccc1OC` (stereo not given): the concentration at half-maximal activity (AC50) is 0.0794 µM [falling, single point].
To `CCOC(=O)c1nnn(-c2nonc2-n2cccc2)c1CN1CCC(C)CC1` belongs 0.398 µM [falling, full curve]; to `COc1ccc(C(=O)NCc2cn3cccc(C)c3n2)cc1OC`, 10 µM [rising, single point].
To `CON(C)c1nc(OCCNC(=O)OCc2ccc(Cl)cc2Cl)nc(N(C)C)n1` belongs 12.6 µM [rising, single point].
Regarding `CC(=O)C1=C(O)C(=O)N(Cc2ccccc2)C1c1ccco1` (stereo not given), the concentration at half-maximal activity (AC50) is 0.631 µM [falling, single point].
The same measure for `Cc1nc2[nH]c(=O)c3c(n2n1)NC1=C(C(=O)CC(C)(C)C1)C3c1ccccc1` (stereo not given): 20 µM [rising, single point]; for `COc1ccc(-c2nnco2)cc1OC`: 25.1 µM [rising, single point].
To `CCOC(=O)c1sc(N)c(C#N)c1CSc1nc2ccc(OCC)cc2[nH]1` belongs 12.6 µM [rising, single point].
The same measure for `O=c1cc(-c2cccc(O)c2O)oc2ccccc12`: 31.6 µM [falling, single point]; for `O=c1c(-c2ccc(O)cc2)coc2cc(O)cc(O)c12`: 31.6 µM [falling, single point]; for `Cc1cc(Cl)cc(C)c1OCCCCn1ccnc1`: 25.1 µM [falling, single point].
Regarding `CCOC(=O)Nc1ccc2c(c1)N(C(=O)CCN1CCOCC1)c1ccccc1S2`, the AC50 was 631 nM [rising, full curve] and 10 µM [rising, single point].
Regarding `COc1ccccc1CN(Cc1cc2c(C)ccc(C)c2[nH]c1=O)Cc1nnnn1Cc1ccco1`, the AC50 is 3.98 µM [rising, single point].
